Assay results taken from publication PMC5996148.
The list shows a part of the results.

Key:
Experiment in all cases: protein microarray (ProtoArray v5.0), streptavidin-Alexa Fluor 647
Details in all cases: 3'-biotin; 20 mM Tris (pH 7.5), 5 mM MgCl2, 100 mM KCl, 0.1% Tween-20, A/T-rich and random oligonucleotide blockers; temperature not stated; high values mean tight binding
[1] = tested on: LOC554203 (human)
[2] = tested on: LOC554207 (human)
[3] = tested on: LOC57228 (human)
[4] = tested on: LOXL2 (human)
[5] = tested on: LPXN (human)
[6] = tested on: LRRC14 (human)
[7] = tested on: LRRC48 (human)
[8] = tested on: LRRIQ2 (human)
[9] = tested on: LSM8 (human)
[10] = tested on: LTB (human)
[11] = tested on: LXN (human)
[12] = tested on: LY6E (human)
[13] = tested on: LY6G6C (human)
[14] = tested on: LYPD1 (human)
[15] = tested on: LYPLAL1 (human)
[16] = tested on: LYSMD2 (human)
[17] = tested on: LYSMD3 (human)
[18] = tested on: LYZL6 (human)
[19] = tested on: LZIC (human)
[20] = tested on: Lactoylglutathione lyase (human)

In the case of “GGTGACAGGGGTATGGGGAGGGG [G4-2 biotinylated (Ct1)]”, the binding signal [1] is reported as -0.398 z-score, the binding signal [2] is reported as -0.36 z-score and the binding signal [3] is reported as 5.81 z-score. The binding signal [4] was -0.358 z-score, the binding signal [5] was -0.391 z-score and the binding signal [6] was -0.369 z-score. It also gave a binding signal [7] of -0.381 z-score, a binding signal [8] of -0.386 z-score and a binding signal [9] of -0.376 z-score. It also gave a binding signal [10] of -0.385 z-score, a binding signal [11] of -0.377 z-score and a binding signal [12] of -0.371 z-score. It also gave a binding signal [13] of -0.384 z-score, a binding signal [14] of -0.37 z-score and a binding signal [15] of -0.384 z-score. It also gave a binding signal [16] of -0.394 z-score, a binding signal [17] of -0.385 z-score and a binding signal [18] of -0.382 z-score. The binding signal [19] was -0.399 z-score and the binding signal [20] was -0.374 z-score.
